# These are yes or no findings as the source states them, for the method shown. Binding seen in cells or lysates may run through a third protein. These calls come from enrichment with a bait or labelling near it, and not all partners need be listed. Where a sequence is shown, tags or fusion partners need not be part of it.
# T1: Ferredoxin 3 (Fd-3), encoded by TK2012, with C-terminal HA-His6 extension (Thermococcus kodakarensis) (UniProt Q5JDE8)
# T1 sequence: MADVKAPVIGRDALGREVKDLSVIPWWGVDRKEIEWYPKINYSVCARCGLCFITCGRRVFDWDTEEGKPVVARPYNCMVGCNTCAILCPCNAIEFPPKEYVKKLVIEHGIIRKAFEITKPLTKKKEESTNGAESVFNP
# Molecular target: T1, Ferredoxin 3 (Fd-3), encoded by TK2012, with C-terminal HA-His6 extension (Thermococcus kodakarensis)
# Test: affinity purification with mass spectrometry; C-terminally HA-His6-tagged Fd made from its own genomic locus; clarified lysates of cultures grown with S0 or without S0 (pyruvate); Ni2+-charged chelating column at 4 °C in 25 mM Tris-HCl pH 8.0, 500 mM NaCl, 10% glycerol; linear imidazole gradient; pooled Fd-containing fractions analysed by MuDPIT; proteins also found in equivalent fractions of parental strain TS559 subtracted
row,binding,Binder
1,binds,"V-type ATP synthase, subunit A (protein, UniProt Q5JIR3 1-585) MGRIIRVTGPLVVADGMKGAKMYEVVRVGEIGLIGEIIRLEGDKAVIQVYEETAGIRPGEPVEGTGSSLSVELGPGLLTAMYDGIQRPLEVLRQLSGDFIARGLTAPALPRDKKWHFTPKVKVGDKVVGGDVLGVVPETSIIEHKILVPPWVEGEIVEIAEEGDYTVEEVIAKVKKPDGTIEELKMYHRWPVRVKRPYKQKLPPEVPLITGQRTIDTFFSQAKGGTAAIPGPFGSGKTVTQHQLAKWSDAQVVVYIGCGERGNEMTDVLEEFPKLKDPKTGKPLMERTVLIANTSNMPVAAREASIYTGITIAEYFRDQGYDVALMADSTSRWAEALREISGRLEEMPGEEGYPAYLASKIAEFYERAGRVITLGSDERVGSVSVIGAVSPPGGDFSEPVVQNTLRVVKVFWALDADLARRRHFPAINWLRSYSLYIDAIQDWWHKNVDPEWRKMRDTAMALLQKEAELQEIVRIVGPDALPDREKAILIVTRMLREDYLQQDAFDEVDTYCPPKKQVTMMRVILNFYEKTMQAVDRGVPVDEIAKLPVREKIGRMKFEPDVEKVRALIDETNQQFEELFKKYGA"
2,binds,"Membrane-bound hydrogenase subunit, MbhL (TK2091) (protein, UniProt Q5JIL3 1-426) MTEKVEYWVKIPFGPIHPGLEEPEKFILTLDGERIVDVDVKLGYNLRGIQWIALRRNYIQIMYLAERMCGICSFSHNHTYTRAVEEAGGIEVPERAEYIRVIIGELERIHSHLLNLGVLAHDIGYDTLLHLTWLAREKVMDTLEAVSGNRVNYSMVTIGGVRRDIDEKKRRIIEEMIKYYREVFPQIEEAFLHDPTIEARFRDTAVISKRVALEQGAVGPTGRGSGIRDDARWSEGLGVYPDLGIKPVMPQDVTGERPRGDVFDRMAVRIGELWQSLELIEHALDAMPDGPIKTFPKDNVLYAKLRLMVDGEGIGRYEAPRGELVHYVRGKKGSDKPLRWKPREPTFPNLFAVARGVIGDQVADFVVAVASIDPCLSCTDRVAVVQDGKKKILTEKDLLRESIKRTREINPDIKGDPSPLGVGCVR"
3,binds,"Membrane-bound hydrogenase subunit, MbhJ (protein, UniProt Q5JHU7 1-176) MAITVPANQNGQKSNPSERERLEKRIAQLCRFLGKSPWVFHVNSGSCNGCDIEIIAALTPRYDAERFGVKLVGSPRHADILVVTGPVTNQSLERVKLVYEQTPDPKIVIAVGACPTGGSVFYESPFTNAPLDRVIPVDVYVPGCPPRPEAILHGVVLALEKLARMIKGEVPEEVGE"
4,binds,"Type II DNA topoisomerase VI, subunit A (protein, UniProt Q5JH82 1-385) MPKRKIQRERPKEKFSYDPRKVLKMLDEHARRILEDIKAGKNPHFDIPMRGLSNVYFDEKSRLIKMGDKLSRRYFLNVAHARKFMQTLLIMAYVKRLVSEGKHASLREAYYANKHTIPGTRENTFEDQSESDPIIEDLERMFGVLREEMHITADRRGYIYGDIVIRDGEDEFNASRLGSGGWAVPGTVEHIQFPEINVDYALVVETAAMADRLIEEKFPKRENALIIATQGQASRGVRRLIHRLHYEEGLPIIVFTDGDPYGWYIYSTIKQGSINLAYLSDKLATPESKFVGMTMDDIKKYGLENVTEKLKGIPPNKKGGPTGDYKRILEEMNYPWFQNKEWQRQLQLALKWGVRIEQQALANKSLEFVAKEYLPEKINNGDLLP"
5,binds,"Membrane-bound hydrogenase subunit, MbhK (TK2090) (protein, UniProt Q5JIL4 1-189) MSEANPITEVNEVKEPTKAEDVARKIAERFPSASVEVKTNKWGRQRVWVRVPREDYKALMSFIKGLDPEAHYSIGIEQDWGEELGFLSHILIHYRDAPAVSLIVDVHAPKDDPVLPDISDVFPIALQFEREGMEMVGLDFEGAPDKRRLFLPDDFPEGIYPLRLDDKGISEEMVHNAGHPYYIKGGAKK"
6,binds,"V-type ATP synthase, subunit H (protein, UniProt Q5JDS3 1-103) MEDVIKRIVEAEKEAETRIEKAEHEAKEIIRKAKEEAKKIEEETIKKAEEESQNLIEKARLEGETEAKKILEEGEKEISALRERAESNFETAIQEAIELVRGA"
7,binds,"Protein disulfide oxidoreductase (protein, UniProt Q5JE30 1-226) MGLISDADKKVIKEEFFSKMTNPVKLIVFVGKEHCQYCDQLKQLVQELSELTDKLSYEVVDFDTEEGKKLAEQYRIDRAPATTITQDGKDMGVRYFGLPAGHEFGAFLEDIVDVSNGTTDLAPDTKEAIHGVDKDVRILVFVTPTCPYCPLAVRMAHKFAIENTLAGKGKILGDMVEAIEYPEWADQYSVMAVPKIVIQVDGEDKVQFEGAYPEKMFLEKLLAALE"
